Data from the supplement of paper PMC8728848.
The list shows a part of the results.

Experiments:
Assay in all cases: glycan array binding signal (z-score within array); higher = stronger binding
Settings in all cases: glycan notation: IUPAC condensed, linker removed
[1] = biological target: Fuc(a1-2)Gal
How it was run: (§1)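 The binding signal is a Z-score computed within each array. Data were drawn from 3228 arrays in the Consortium for Functional Glycomics database, restricted to those with a known protein sequence. Scores were averaged over arrays of the same protein sequence at different concentrations or buffers, and over linkers, and negative values can be taken as non-binding.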

[2] = biological target: Fuc(a1-2)Gal(b1-3)GalNAc
How it was run: as §1

[3] = biological target: Fuc(a1-2)Gal(b1-3)GalNAc(a1-3)[Fuc(a1-2)]Gal(b1-4)Glc
How it was run: as §1

[4] = biological target: Fuc(a1-2)Gal(b1-3)GalNAc(a1-3)[Fuc(a1-2)]Gal(b1-4)GlcNAc
How it was run: as §1

[5] = biological target: Fuc(a1-2)Gal(b1-3)GalNAc(b1-3)Gal
How it was run: as §1

[6] = biological target: Fuc(a1-2)Gal(b1-3)GalNAc(b1-3)Gal(a1-4)Gal(b1-4)Glc
How it was run: as §1

[7] = biological target: Fuc(a1-2)Gal(b1-3)GalNAc(b1-4)[Neu5Ac(a2-3)]Gal(b1-4)Glc
How it was run: as §1

[8] = biological target: Fuc(a1-2)Gal(b1-3)GlcNAc
How it was run: as §1

[9] = biological target: Fuc(a1-2)Gal(b1-3)GlcNAc(b1-2)Man(a1-3)[Fuc(a1-2)Gal(b1-3)GlcNAc(b1-2)Man(a1-6)]Man(b1-4)GlcNAc(b1-4)GlcNAc
How it was run: as §1

[10] = biological target: Fuc(a1-2)Gal(b1-3)GlcNAc(b1-2)Man(a1-3)[Fuc(a1-2)Gal(b1-3)GlcNAc(b1-2)Man(a1-6)]Man(b1-4)GlcNAc(b1-4)[Fuc(a1-6)]GlcNAc
How it was run: as §1

[11] = biological target: Fuc(a1-2)Gal(b1-3)GlcNAc(b1-3)Gal(b1-4)Glc
How it was run: as §1

[12] = biological target: Fuc(a1-2)Gal(b1-3)GlcNAc(b1-3)GalNAc
How it was run: as §1

[13] = biological target: Fuc(a1-2)Gal(b1-3)GlcNAc(b1-3)[Fuc(a1-2)Gal(b1-3)GlcNAc(b1-6)]GalNAc
How it was run: as §1

[14] = biological target: Fuc(a1-2)Gal(b1-3)GlcNAc(b1-3)[Gal(b1-4)GlcNAc(b1-6)]Gal(b1-4)Glc
How it was run: as §1

[15] = biological target: Fuc(a1-2)Gal(b1-3)GlcNAc(b1-3)[Neu5Ac(a2-6)Gal(b1-4)GlcNAc(b1-6)]Gal(b1-4)Glc
How it was run: as §1

[16] = biological target: Fuc(a1-2)Gal(b1-3)GlcNAc6S
How it was run: as §1

[17] = biological target: Fuc(a1-2)Gal(b1-3)[Fuc(a1-4)]GlcNAc
How it was run: as §1

[18] = biological target: Fuc(a1-2)Gal(b1-3)[Fuc(a1-4)]GlcNAc(b1-2)Man(a1-3)[Fuc(a1-2)Gal(b1-3)[Fuc(a1-4)]GlcNAc(b1-2)Man(a1-3)]Man(b1-4)GlcNAc(b1-4)GlcNAc
How it was run: as §1

[19] = biological target: Fuc(a1-2)Gal(b1-3)[Fuc(a1-4)]GlcNAc(b1-2)Man(a1-3)[Fuc(a1-2)Gal(b1-3)[Fuc(a1-4)]GlcNAc(b1-2)Man(a1-6)]Man(b1-4)GlcNAc(b1-4)[Fuc(a1-6)]GlcNAc(b1-4)[Fuc(a1-6)]GlcNAc
How it was run: as §1

[20] = biological target: Fuc(a1-2)Gal(b1-3)[Fuc(a1-4)]GlcNAc(b1-3)[Fuc(a1-3)[Gal(b1-4)]GlcNAc(b1-6)]Gal(b1-4)Glc
How it was run: as §1

[21] = biological target: Fuc(a1-2)Gal(b1-3)[Fuc(a1-4)]GlcNAc(b1-3)[Gal(b1-4)GlcNAc(b1-6)]Gal(b1-4)Glc
How it was run: as §1

[22] = biological target: Fuc(a1-2)Gal(b1-4)Glc
How it was run: as §1

[23] = biological target: Fuc(a1-2)Gal(b1-4)Glc6S
How it was run: as §1

[24] = biological target: Fuc(a1-2)Gal(b1-4)GlcNAc
How it was run: as §1

[25] = biological target: Fuc(a1-2)Gal(b1-4)GlcNAc(b1-2)Man
How it was run: as §1

[26] = biological target: Fuc(a1-2)Gal(b1-4)GlcNAc(b1-2)Man(a1-3)[Fuc(a1-2)Gal(b1-4)GlcNAc(b1-2)Man(a1-6)]Man(b1-4)GlcNAc(b1-4)GlcNAc
How it was run: as §1

[27] = biological target: Fuc(a1-2)Gal(b1-4)GlcNAc(b1-2)Man(a1-3)[Fuc(a1-2)Gal(b1-4)GlcNAc(b1-2)Man(a1-6)]Man(b1-4)GlcNAc(b1-4)[Fuc(a1-6)]GlcNAc
How it was run: as §1

[28] = biological target: Fuc(a1-2)Gal(b1-4)GlcNAc(b1-2)[Fuc(a1-2)Gal(b1-4)GlcNAc(b1-4)]Man(a1-3)[Fuc(a1-2)Gal(b1-4)GlcNAc(b1-2)Man(a1-6)]Man(b1-4)GlcNAc(b1-4)GlcNAc
How it was run: as §1

[29] = biological target: Fuc(a1-2)Gal(b1-4)GlcNAc(b1-3)Gal(b1-4)GlcNAc
How it was run: as §1

[30] = biological target: Fuc(a1-2)Gal(b1-4)GlcNAc(b1-3)Gal(b1-4)GlcNAc(b1-2)Man(a1-3)[Fuc(a1-2)Gal(b1-4)GlcNAc(b1-3)Gal(b1-4)GlcNAc(b1-2)Man(a1-6)]Man(b1-4)GlcNAc(b1-4)GlcNAc
How it was run: as §1

B1: Clec18A (Homo sapiens) (protein)
chain: PFHTCDLRIDGDCFMVSSEADTYYRARMKCQRKGGVLAQIKRQKVQDILAFYLGRLETTNEVIDSDFETRNFWIGLTYKTAKDSFRWATGEHQAFTSFAFGQPDNHGFGNCVELQASAAFNWNDQRCKTRNRYICQ
glycan array binding signal (z-score) [1]: -0.536 | glycan array binding signal (z-score) [2]: 0.01 | glycan array binding signal (z-score) [3]: -0.752 | glycan array binding signal (z-score) [4]: -0.318 | glycan array binding signal (z-score) [5]: -0.652 | glycan array binding signal (z-score) [6]: -0.293 | glycan array binding signal (z-score) [7]: -0.807 | glycan array binding signal (z-score) [8]: -0.567 | glycan array binding signal (z-score) [9]: 0.82 | glycan array binding signal (z-score) [10]: -0.73 | glycan array binding signal (z-score) [11]: -0.434 | glycan array binding signal (z-score) [12]: -0.095 | glycan array binding signal (z-score) [13]: 0.898 | glycan array binding signal (z-score) [14]: -0.342 | glycan array binding signal (z-score) [15]: -0.062 | glycan array binding signal (z-score) [16]: -0.308 | glycan array binding signal (z-score) [17]: -0.979 | glycan array binding signal (z-score) [18]: -0.005 | glycan array binding signal (z-score) [19]: -0.249 | glycan array binding signal (z-score) [20]: 2.41 | glycan array binding signal (z-score) [21]: -0.169 | glycan array binding signal (z-score) [22]: -0.638 | glycan array binding signal (z-score) [23]: -0.25 | glycan array binding signal (z-score) [24]: -0.535 | glycan array binding signal (z-score) [25]: -0.644 | glycan array binding signal (z-score) [26]: -0.132 | glycan array binding signal (z-score) [27]: -0.511 | glycan array binding signal (z-score) [28]: 1.4 | glycan array binding signal (z-score) [29]: 0.948 | glycan array binding signal (z-score) [30]: -0.412
